From doi:10.1101/2022.03.08.483486 come the findings set out here.

The target in assay [1] is T1, LONESOME HIGHWAY (LHW), Gal4 fusion for yeast two-hybrid and three-hybrid (Arabidopsis) (UniProt Q9XIN0).
T1 sequence: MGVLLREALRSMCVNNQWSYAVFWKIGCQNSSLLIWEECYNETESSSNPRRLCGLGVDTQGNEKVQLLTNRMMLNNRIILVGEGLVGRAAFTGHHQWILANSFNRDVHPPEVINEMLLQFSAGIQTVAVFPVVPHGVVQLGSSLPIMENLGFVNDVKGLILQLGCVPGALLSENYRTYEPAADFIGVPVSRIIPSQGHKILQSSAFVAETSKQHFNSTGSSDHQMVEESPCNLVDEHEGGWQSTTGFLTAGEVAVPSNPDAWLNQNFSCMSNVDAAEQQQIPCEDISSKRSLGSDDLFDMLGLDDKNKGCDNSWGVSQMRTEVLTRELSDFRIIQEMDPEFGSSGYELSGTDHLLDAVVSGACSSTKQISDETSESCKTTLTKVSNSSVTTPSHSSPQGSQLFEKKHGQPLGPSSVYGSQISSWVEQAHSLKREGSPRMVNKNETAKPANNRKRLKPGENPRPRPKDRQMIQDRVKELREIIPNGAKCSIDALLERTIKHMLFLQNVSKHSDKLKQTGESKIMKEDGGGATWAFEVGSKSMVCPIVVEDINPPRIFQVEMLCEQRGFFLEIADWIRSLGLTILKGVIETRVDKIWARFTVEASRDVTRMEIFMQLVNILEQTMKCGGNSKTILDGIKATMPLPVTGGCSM
Description: two-hybrid.

Assay [2] addresses T2, TARGET OF MONOPTEROS 5 (TMO5), Gal4 fusion for yeast two-hybrid and three-hybrid (Arabidopsis) (UniProt Q9LS08).
T2 sequence: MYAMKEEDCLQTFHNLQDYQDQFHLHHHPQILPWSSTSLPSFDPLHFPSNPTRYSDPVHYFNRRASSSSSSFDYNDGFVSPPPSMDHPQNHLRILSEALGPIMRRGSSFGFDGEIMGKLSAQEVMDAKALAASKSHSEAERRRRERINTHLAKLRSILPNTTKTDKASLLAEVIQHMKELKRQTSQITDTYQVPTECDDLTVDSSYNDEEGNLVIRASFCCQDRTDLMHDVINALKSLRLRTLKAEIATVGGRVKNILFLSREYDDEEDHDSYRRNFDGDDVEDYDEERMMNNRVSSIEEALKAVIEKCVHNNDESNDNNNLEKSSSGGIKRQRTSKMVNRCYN
Description: two-hybrid.

Assay [3] deals with T3, TMO5-EGFP-FKBP (Arabidopsis) (UniProt Q9LS08).
T3 sequence: T2 sequence
Description: knock sideways.

These are yes or no findings as the source states them, for the method shown. Some binding calls cover weakened binding; strength is not graded here. Where a sequence is shown, tags or fusion partners need not be part of it.

B1: TARGET OF MONOPTEROS 5 (TMO5), Gal4 fusion for yeast two-hybrid and three-hybrid (protein, UniProt Q9LS08 1-344)
chain: T2 sequence
Regarding B1, in assay [1], the binding entry is listed as “binds”.

B2: MYB12, Gal4 fusion for yeast two-hybrid (protein, UniProt O22264 1-371)
chain: MGRAPCCEKVGIKRGRWTAEEDQILSNYIQSNGEGSWRSLPKNAGLKRCGKSCRLRWINYLRSDLKRGNITPEEEELVVKLHSTLGNRWSLIAGHLPGRTDNEIKNYWNSHLSRKLHNFIRKPSISQDVSAVIMTNASSAPPPPQAKRRLGRTSRSAMKPKIHRTKTRKTKKTSAPPEPNADVAGADKEALMVESSGAEAELGRPCDYYGDDCNKNLMSINGDNGVLTFDDDIIDLLLDESDPGHLYTNTTCGGDGELHNIRDSEGARGFSDTWNQGNLDCLLQSCPSVESFLNYDHQVNDASTDEFIDWDCVWQEGSDNNLWHEKENPDSMVSWLLDGDDEATIGNSNCENFGEPLDHDDESALVAWLLS
For B2, in assay [2], the binding entry is reported as “binds”.

B3: MYB12-TagBFP2 (protein, UniProt O22264 1-371)
chain: B2 chain
With B3, the binding result in assay [3] is listed as “binds”.
